From US20060134102A1, “Lymphotoxin beta receptor agents in combination with chemotherapeutic agents” (Biogen Idec MA Inc., priority 2002, published 2006)

Tested on: KM-20L2 human colorectal adenocarcinoma
Assay: KM-20L2 xenograft model: growth of established KM-20L2 human colorectal tumors in athymic nude mice (tumor volume/weight, % T/C, Fa, Combination Index)
Assay type: in vivo
Settings: Mean

## Nc1ccn([C@@H]2O[C@H](CO)[C@@H](O)C2(F)F)c(=O)n1 [Gemcitabine, gemcitabine, reference compound]
Day 16
  Dose-Effect Curve Slope: 1.23
  Dose-Effect Curve Y-Intercept: −1.42
Day 20
  Dose-Effect Curve Slope: 1.36
  Dose-Effect Curve Y-Intercept: −1.37
Day 23
  Dose-Effect Curve Slope: 1.31
  Dose-Effect Curve Y-Intercept: −1.35
Day 27
  Dose-Effect Curve Slope: 1.31
  Dose-Effect Curve Y-Intercept: −1.45
Day 30
  Dose-Effect Curve Slope: 1.12
  Dose-Effect Curve Y-Intercept: −1.29
Day 34
  Dose-Effect Curve Slope: 0.86
  Dose-Effect Curve Y-Intercept: −1.00
Day 37
  Dose-Effect Curve Slope: 0.90
  Dose-Effect Curve Y-Intercept: −1.06
Day 41
  Dose-Effect Curve Slope: 0.87
  Dose-Effect Curve Y-Intercept: −1.07
Day 43
  Dose-Effect Curve Slope: 0.98
  Dose-Effect Curve Y-Intercept: −1.20
